# From PubChem BioAssay AID662 (National Center for Advancing Translational Sciences (NCATS), 2007)
# Several values for one entry are separate records, joined by “and”; a condition that tells them apart may be missing. Equal entries are not always repeated. This is one part of the list. Shown are side measurements of this screen, not its main read-out; they come without a call. Most of these compounds were active or inconclusive in the main read-out, so they are no random draw. Words in brackets tell the shape of the fitted curve; partial curves, single points and poor fits give uncertain potencies.
# Experiment: Cell signaling CRE-BLA (Fsk stim)
# Conditions: CHO CRE-bla reporter (cAMP response element driving beta-lactamase), forskolin EC10, beta-lactamase ratio; measured here: 460 nm blue channel
# In short: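 AC50 values, positive or negative, reflect shifts in EC10 NKH 477-induced CRE-bla reporter activity in CHO cells. Incubation lasted 3 h at 37 °C before CCF4 substrate (2 h, room temperature) and ratiometric 460/530 nm reading.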
row,SMILES,AC50
1,Cc1cc(Cl)cc(C)c1OCCCCn1ccnc1,"25.1 µM [falling, single point]"
2,CCOC(=O)Nc1ccc2c(c1)N(C(=O)CCN1CCOCC1)c1ccccc1S2,"631 nM [rising, full curve] and 10 µM [rising, single point]"
3,COc1ccccc1CN(Cc1cc2c(C)ccc(C)c2[nH]c1=O)Cc1nnnn1Cc1ccco1,"3.98 µM [rising, single point]"
4,O=C(Nc1ncnc2sc3c(c12)CCC3)c1ccco1,"5.01 µM [rising, full curve, poor fit]"
5,CSCCC(NC(N)=O)C(=O)NCC1CCCCC1 (stereo unspecified),"3.98 µM [falling, single point]"
6,Oc1ccc(-c2nc3cnccn3c2Nc2ccc3c(c2)OCCO3)cc1,"12.6 µM [falling, partial curve]"
7,O=C(C1CC1)N(CCc1ccccc1)Cc1nc2ccccc2c(=O)[nH]1,"0.794 µM [falling, partial curve]"
8,CCOC(=O)c1cc2c(ccn2C)n1CC(=O)N1CCC(Cc2ccccc2)CC1,"3.16 µM [falling, single point]"
9,COC(=O)c1[nH]c2ccc(C)cc2c1NS(=O)(=O)c1ccc(F)c(C)c1,"15.8 µM [rising, single point]"
10,CC(C)(C)Nc1nc(OCC(F)(F)F)nc(OCC(F)(F)F)n1,"15.8 µM [rising, partial curve]"
11,CC(C)CCn1c(=O)c2ccccc2n2c(CN(C)Cc3ccccc3)nnc12,"12.6 µM [rising, single point]"
12,O=C(CCn1nc(-c2ccc(Cl)cc2)ccc1=O)N1CCN(c2ccccn2)CC1,"10 µM [rising, partial curve]"
13,CCSc1ccccc1C(=O)n1nnc2ccccc21,"2 µM [falling, full curve]"
14,CCOC(=O)CSc1nnc(-c2nnc(SCC(=O)OCC)n2CC)n1CC,"2.51 µM [falling, full curve]"
15,NC(=O)c1cnn2c(C(F)(F)F)cc(-c3ccccc3)nc12,"25.1 µM [rising, single point]"
16,COc1nc(NCCc2ccc(OC)c(OC)c2)nc(OC)n1,"10 µM [rising, partial curve]"
17,CN=C(NC#N)NCCSCc1nc[nH]c1C,"10 µM [falling, full curve, poor fit]"
18,COc1cc(OC)cc(-c2nnc(SCc3c(F)cccc3Cl)o2)c1,"6.31 µM [rising, partial curve]"
19,CCOc1cc2[nH]c(=S)n(CCCOC)c(=O)c2cc1OCC,"25.1 µM [rising, single point]"
20,Cc1c(C(=O)N2CCN(c3ccccc3)CC2)sc2ncnc(N3CCN(c4ccccc4)CC3)c12,"3.16 µM [falling, single point]"
21,COc1ccc(OCC(=O)N2CCN(c3cccc(C(F)(F)F)c3)CC2)cc1,"12.6 µM [falling, partial curve]"
22,Cc1ccc(C(=O)[C@@H]2[C@@H]3[C@@H](C(=O)[C@@H]4OC[C@H]3O4)[C@@H]3C=Cc4ccccc4N23)cc1,"31.6 µM [falling, single point]"

# Structures from the list above with a carbonyl joined to an NH by a bond outside any ring (4):
row,SMILES,AC50
2,CCOC(=O)Nc1ccc2c(c1)N(C(=O)CCN1CCOCC1)c1ccccc1S2,"631 nM [rising, full curve] and 10 µM [rising, single point]"
4,O=C(Nc1ncnc2sc3c(c12)CCC3)c1ccco1,"5.01 µM [rising, full curve, poor fit]"
5,CSCCC(NC(N)=O)C(=O)NCC1CCCCC1 (stereo unspecified),"3.98 µM [falling, single point]"
15,NC(=O)c1cnn2c(C(F)(F)F)cc(-c3ccccc3)nc12,"25.1 µM [rising, single point]"

# Following part.

row,SMILES,AC50
1,COc1ccc(NC(=O)CSc2nc3c(c(=O)n2-c2ccc(F)cc2)SCC3)c(OC)c1,"3.16 µM [rising, full curve, poor fit]"
2,CCn1c(CSc2nc3ccccc3n2C)nc2ccccc21,"10 µM [rising, partial curve]"
3,CC1CCN(CCNC(=O)CCS(=O)(=O)c2ccc(Br)cc2)CC1,"0.794 µM [falling, partial curve]"
4,Cc1ccc2ccccc2c1CSc1nc(N)nc2c1ncn2CC(C)C,"3.98 µM [rising, partial curve]"
5,CCCN(c1ccc(C(C)C)cc1)S(=O)(=O)c1c(C)noc1C,"10 µM [rising, single point]"
6,CC(=O)c1cccc(NC(=O)N2CCCC2C(=O)NC2CCCCC2)c1 (stereo unspecified),"15.8 µM [falling, single point]"
7,COCCn1c(-c2cc(OC)c(OC)c(OC)c2)nc2nc3ccccc3nc21,"3.98 µM [rising, partial curve, poor fit]"
8,Cc1nc2ccccc2c(=O)n1NC(=O)c1c(O)c2c(n(CC(C)C)c1=O)CCCC2,"6.31 µM [rising, partial curve]"
9,Clc1ccccc1-c1nn2c(Cn3cnc4ccccc43)nnc2s1,"15.8 µM [rising, single point]"
10,CCCCCCN(CCCCCC)C(=O)Cc1c(-c2ccc(F)cc2)[nH]c2ccccc12,"12.6 µM [falling, single point]"
11,O=C1c2ccccc2C(=O)N1CCc1nc2ccccc2c(=O)n1Cc1ccco1,"12.6 µM [rising, partial curve]"
12,COCCn1c(=S)[nH]c2ccc(N(C)C)cc2c1=O,"12.6 µM [rising, single point]"
13,O=c1c(CCc2ccccc2)nc2cnc(N3CCOCC3)nc2n1C1CC1,"20 µM [rising, single point]"
14,CCOC(=O)c1sc(C)c2c1NC(C)(c1cccs1)NC2=O (stereo unspecified),"10 µM [rising, single point]"
15,O=C(OC1CCc2ccccc2C1=O)c1ccccc1O (stereo unspecified),"12.6 µM [falling, partial curve]"
16,O=C(CSc1nc(Nc2ccccc2)nc(N2CCOCC2)n1)Nc1ccc2c(c1)OCCO2,"10 µM [rising, partial curve]"
17,CCNc1ncc2nc(-c3ccc(OC)cc3)c(=O)n(C)c2n1,"5.01 µM [rising, partial curve]"
18,N#Cc1nc(COc2ccccc2F)oc1N1CCCCCC1,"12.6 µM [rising, partial curve]"
19,O=C(CCn1nc(-c2ccccc2)c2ccccc2c1=O)NCC1CCCO1 (stereo unspecified),"12.6 µM [rising, partial curve]"
20,CSc1nc(N)c2ncn([C@H]3O[C@H](COP(=O)(O)OP(=O)(O)O)[C@@H](O)[C@@H]3O)c2n1,"31.6 µM [falling, single point]"
21,CCN(CC(=O)NC1CCCC1)S(=O)(=O)c1ccc(C)cc1,"5.01 µM [falling, single point]"
22,COC(=O)c1ccc(CSc2nc3c(c(=O)n2-c2ccc(Br)cc2)SCC3)o1,"2.51 µM [rising, single point]"

row,SMILES,AC50
1,CCc1cccc2c1NC(=O)[C@]21[C@@H]2C(=O)N(Cc3ccccc3)C(=O)[C@@H]2[C@@H]2CCCN21,"20 µM [falling, partial curve, poor fit]"
2,c1csc(CNc2ccnc(-c3ccoc3)n2)c1,"3.16 µM [rising, single point]"
3,COC(=O)c1cc2ccc(OC)c(OC)c2c(=O)s1,"12.6 µM [rising, single point]"
4,CCNc1ncc2nc(-c3cccs3)c(=O)n(C[C@H]3CCCO3)c2n1,"2.51 µM [rising, full curve]"
5,CCOC(=O)c1ccc(N2C(=O)C(O)=C(C(C)=O)C2c2ccc(O)c(OC)c2)cc1 (stereo unspecified),"15.8 µM [falling, single point]"
6,COc1ccc2[nH]c(O)c(NC(C)=O)c2c1,"0.398 µM [rising, full curve]"
7,Cc1cccc(N2CCN(C(=O)C3CCN(S(=O)(=O)c4cccc5cccnc45)CC3)CC2C)c1 (stereo unspecified),"25.1 µM [falling, single point]"
8,CCn1c(NCc2ccco2)nc2c1c(=O)n(C)c(=O)n2C,"10 µM [rising, partial curve]"
9,COc1ccc(OC)c(C(c2nnnn2C2CCCC2)N2CCc3ccccc3C2)c1 (stereo unspecified),"15.8 µM [falling, partial curve]"
10,CSCC[C@H](NC(=O)C1CCN(S(=O)(=O)c2ccc(C)cc2)CC1)C(=O)NCc1ccco1,"0.00794 µM [falling, full curve, poor fit]"
11,Cc1ccc2[nH]c(-c3cccc(N)c3)cc2c1,"0.794 µM [falling, full curve, poor fit]"
12,COc1cccc(Cn2c(=O)c(-c3cc(F)cc(F)c3)nc3cnc(N4CCOCC4)nc32)c1,"5.01 µM [rising, partial curve]"
13,Cc1nc2ccccc2nc1N1CCCC1,"3.16 µM [rising, single point]"
14,COCc1cc(C)nc(N2CCN(c3ccccc3)CC2)c1C#N,"31.6 µM [rising, single point]"
15,Cc1nc(SCC(=O)N2CCN(C(=O)c3ccco3)CC2)c2c(C)c(C)sc2n1,"1.26 µM [rising, full curve]"
16,COc1cc(OC)c2c(C)c(Cl)c(=O)oc2c1,"10 µM [rising, partial curve]"
17,O=C(Nc1ccc(S(=O)(=O)NC2CCCCC2)cc1)c1ccc(Br)o1,"25.1 µM [rising, single point]"
18,CC(=O)N1CCc2cc(C(=O)CN3CCN(C(=O)c4ccco4)CC3)ccc21,"12.6 µM [falling, partial curve]"
19,CCNc1nc(NCC)nc(-n2nc(C)cc2C)n1,"12.6 µM [rising, partial curve]"
20,CC1CCN(c2nc(-c3ccccc3)c(C#N)c(=O)[nH]2)CC1,"0.501 µM [falling, partial curve]"
21,Cc1ccc(-c2nc3cnccn3c2Nc2ccc3c(c2)OCO3)o1,"10 µM [rising, partial curve]"
22,O=C(Nc1ccc2ccccc2c1)[C@@H]1C[C@H]1[C@@H](NP(=O)(c1ccccc1)c1ccccc1)c1ccccc1,"2 µM [falling, full curve, poor fit]"
